# Test results reported in PubChem BioAssay AID504467 (National Center for Advancing Translational Sciences (NCATS), 2011).
# In all, about 330,000 compounds went through this assay and about 7,700 (2.3%) were called active. This list was built around the results that the source calls inconclusive (neither active nor inactive); the mix of calls is not that of the screen. The call rests on the fitted dose curve; in most records, active means well fitted inhibition curve with a large enough effect; inconclusive means small, poorly fitted or top-dose-only effect, or effect the other way; inactive means flat fitted curve, though single readings scatter. Potencies of inconclusive entries are doubtful fits and often do not repeat.
# Assay: qHTS screen for small molecules that inhibit ELG1-dependent DNA repair in human embryonic kidney (HEK293T) cells expressing luciferase-tagged ELG1; further: nearly all actives have a fitted effect of over 55% in size
# Settings: HEK293T ELG1-luciferase reporter, luminescence, 16 h, DNA damage induced by 5-fluorouridine; activity change, negative = inhibition: at 46.1 µM (top of the series)
# Summary of the method: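 Luminescence from the luciferase reporter, measured 30 min after ONE-Glo reagent at room temperature, was the read-out. Beforehand, 2,000 cells per well were exposed for 16 hr at 37 °C to 5-fluorouridine together with compound or vehicle.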
# On the % scale 0 is the no-effect control and ±100 the full control effect; potency means the concentration at half of the fitted maximal effect.
Compound,"activity change, negative = inhibition",Potency
COCCNc1nnc(SCC(=O)NC2CCCCC2)s1,inactive: 16.5%,–
O=[N+]([O-])c1cccnc1NCCc1ccccc1,–,"inconclusive: 20.6 µM [activator, partial curve]"
CC(=O)Nc1ccc(OC(=O)c2cccs2)cc1,–,"inconclusive: 29.1 µM [activator, single point]"
CC(C)N(C)Cc1nnnn1CC(=O)N(C)Cc1ccc(F)cc1,inactive: -21.3%,–
Cc1ccc(N2C(=O)N3[C@H](c4cccc(C)c4)[C@@H]4C(=O)N(Cc5ccccc5)C(=O)[C@@H]4[C@]3(C)C2=O)cc1,–,"inconclusive: 5.62 µM [activator, single point]"
O=C(COC(=O)CNC(=O)c1ccco1)NCc1ccc(F)cc1,inactive: 5.96%,–
CC1CCN(S(=O)(=O)c2ccc(C(=O)Nc3sccc3C(N)=O)cc2)CC1,–,"inconclusive: 23.1 µM [inhibitor, partial curve, poor fit]"
COc1ccc(-c2cc(=O)oc3cc4occ(C)c4cc23)cc1,–,"inconclusive: 29.1 µM [inhibitor, single point]"
Cc1ccc(CNC(=O)C(=O)NCCC2CCCCN2S(=O)(=O)c2ccc(C)cc2)cc1 (centres undefined),–,"inconclusive: 1.03 µM [inhibitor, single point]"
CCCCC(=O)Nc1ccc(C(=O)N(CC)c2ccccc2C)cc1,–,"inconclusive: 29.1 µM [inhibitor, single point]"
CC(=O)N1c2ccc(S(=O)(=O)NCCC(=O)NCc3ccc(Cl)cc3)cc2CC1C (centres undefined),–,"inconclusive: 29.1 µM [inhibitor, single point]"
CCN1C(=O)C2(Nc3ccccc3-c3nc4ccccc4n32)c2cc(OC)ccc21 (centres undefined),–,"inconclusive: 25.9 µM [inhibitor, partial curve, poor fit]"
COC(=O)Cn1ncc2c(C)n(Cc3ccccc3)c(C)c2c1=O,–,"inconclusive: 18.4 µM [activator, partial curve]"
O=C(CCCN1C(=O)/C(=C/c2ccccc2Cl)SC1=S)NNC(=O)c1ccccc1Cl,–,"inconclusive: 10.3 µM [inhibitor, partial curve]"
CCOc1ccccc1Nc1nnc(SCc2nnc(-c3cc(OC)c(OC)c(OC)c3)o2)s1,–,active: 5.8 µM
O=C(N[C@H](C(=O)O)c1ccccc1)C1CCC(Cn2cnc3ccccc3c2=O)CC1 (some centres undefined),inactive: 11.3%,–
CS(=O)(=O)CCC(C(=O)Nc1ccc2c(c1)OCO2)N1Cc2ccccc2C1=O (centres undefined),–,"inconclusive: 14.6 µM [activator, single point]"
Cc1ccc(C)c(C(=O)Nc2ccncc2)c1,–,"inconclusive: 35.5 µM [inhibitor, single point]"
Oc1[nH]c2ccccc2c1N=Nc1c(F)c(F)c(Cl)c(F)c1F,inactive: 24.5%,–
C(=N\Nc1nn2cnnc2c2ccccc12)/c1ccco1,inactive: 21.1%,–
N#C/C(=C(/O)c1ccc(Cl)c([N+](=O)[O-])c1)c1nc2ccccc2[nH]1,–,active: 8.2 µM
O=C(Nc1nnc(-c2ccncc2)s1)C1CCCO1 (centres undefined),–,"inconclusive: 29.1 µM [activator, single point]"
Cc1ccc(-c2cc(C(=O)Nc3c(C)n(C)n(-c4ccccc4)c3=O)[nH]n2)c(O)c1C,–,"inconclusive: 4.61 µM [inhibitor, partial curve, poor fit]"

Compound,"activity change, negative = inhibition",Potency
O=C(Nc1cccc2ccccc12)NC1CCCCC1,inactive: 5.11%,–
Oc1ccccc1NCC(O)Cn1ccc2ccccc21 (centres undefined),–,"inconclusive: 25.9 µM [activator, single point]"
COc1ccccc1NC(=O)c1cccc(N2C(=O)C3C4C=CC(C4)C3C2=O)c1 (centres undefined),inactive: 0.721%,–
C=C1c2ccccc2NC(=S)N1Cc1ccc2c(c1)OCO2,–,"inconclusive: 7.3 µM [activator, partial curve]"
COc1ccc(C(=O)Nc2sc(C)c(C)c2CN2CC(C)OC(C)C2)cc1 (centres undefined),–,"inconclusive: 20.6 µM [activator, partial curve]"
CCOC(=O)COc1ccc(S(=O)(=O)Nc2ccc3c(c2)OCCO3)cc1,–,"inconclusive: 25.9 µM [activator, partial curve, poor fit]"
CN(C)c1ccc(NC(=O)Cn2cc3c(n2)CCCC3)cc1,–,"inconclusive: 25.9 µM [activator, partial curve, poor fit]"
COc1ccc(NC(=O)c2ccc(Oc3ncccn3)cc2)cc1,–,"inconclusive: 23.1 µM [activator, partial curve]"
Cn1c(=O)n(C)c2cc(/C=C3/SC(=O)N(CC(=O)N4CCOCC4)C3=O)ccc21,–,"inconclusive: 16.4 µM [activator, partial curve]"
COC(=O)c1cn(NC(=O)Cc2cccc(OC)c2)c(=O)c2ccccc12,inactive: 3.52%,–
COc1ccc(/C=N/NC(=O)c2cccnc2)cc1COc1ccc([N+](=O)[O-])c(C)c1,–,active: 14.6 µM
CCOCCCNc1nc2c(c(=O)[nH]c(=O)n2C)n1CCCc1ccccc1,inactive: -4.98%,–
Cc1ccc2c(Cl)c(C(=O)NC3CC3)sc2c1,–,"inconclusive: 16.4 µM [activator, partial curve]"
O=C(c1nn(Cc2ccccc2)c(=O)c2ccccc12)N1CCc2ccccc2C1,–,"inconclusive: 16.4 µM [inhibitor, partial curve]"
CCOC(=O)n1c(=O)n(C)c2ccc(Cl)cc21,–,"inconclusive: 11.6 µM [activator, partial curve, poor fit]"
CN(C)C(/C=C/Nc1ccc(C#N)cc1)=C(C#N)C#N,–,"inconclusive: 25.9 µM [inhibitor, partial curve, poor fit]"
CC(C)NS(=O)(=O)c1ccc(OCC(=O)NCc2ccc3c(c2)OCO3)c(Cl)c1,–,"inconclusive: 29.1 µM [inhibitor, single point]"
Cc1ccc(NC(=O)COc2ccc(/C=N/NC(=O)CSCc3ccccc3)cc2)cc1,–,"inconclusive: 16.4 µM [inhibitor, partial curve, poor fit]"
C=CCc1cccc2cc(C(=O)Nc3cccc(C(=O)O)c3)c(=O)oc12,–,"inconclusive: 6.51 µM [activator, single point]"
COc1nc(N)nc(NC23CC4CC(CC(C4)C2)C3)n1,–,"inconclusive: 18.4 µM [activator, single point]"
CC(=O)Nc1ccc(N/C=C/C(=O)c2ccc(Br)cc2)cc1,–,"inconclusive: 4.11 µM [activator, partial curve, poor fit]"
O=C(Nc1ccc(F)cc1)c1cc(-c2ccccn2)nc2c(Cl)cccc12,inactive: 2.6%,–
CCn1c(SC(C)C(=O)Nc2nccs2)nnc1-c1ccncc1 (centres undefined),inactive: 13%,–

# Random excerpt: 3 records from the list.
Compound,"activity change, negative = inhibition",Potency
CC(=O)N1c2ccc(S(=O)(=O)NCCC(=O)NCc3ccc(Cl)cc3)cc2CC1C (centres undefined),–,"inconclusive: 29.1 µM [inhibitor, single point]"
Cc1ccc2c(Cl)c(C(=O)NC3CC3)sc2c1,–,"inconclusive: 16.4 µM [activator, partial curve]"
O=C(COC(=O)CNC(=O)c1ccco1)NCc1ccc(F)cc1,inactive: 5.96%,–

# Continuation.

Compound,"activity change, negative = inhibition",Potency
CCc1cc2c(=O)c(-c3ccc4c(c3)OCO4)coc2c(CN(C)C)c1O,inactive: -14.8%,–
CC(C)COC(=O)/C(C#N)=C/c1c[nH]c2ccccc12,–,"inconclusive: 20.6 µM [activator, partial curve]"
O=C(COC(=O)c1ccc(F)cc1F)NC(=O)Nc1ccc2c(c1)OCCO2,–,"inconclusive: 20.6 µM [activator, single point]"
O=C(Nc1ccc(OC(F)(F)F)cc1)NC1CCC(Oc2ccc(C(=O)O)cc2)CC1 (centres undefined),–,"inconclusive: 5.8 µM [activator, partial curve, poor fit]"
CCCc1nc(SCC(=O)N2CCc3ccccc32)c2c(C)c(C)sc2n1,inactive: 5.65%,–
COc1ccc2cc(C(C)C(=O)Nc3cccc(S(=O)(=O)N(C)C)c3)ccc2c1 (centres undefined),–,"inconclusive: 29.1 µM [inhibitor, partial curve, poor fit]"
CCOc1ccc(OCC(=O)OCc2csc(CC(=O)Nc3ccccc3C)n2)cc1,–,"inconclusive: 2.06 µM [activator, partial curve, poor fit]"
CCN(CC)C(=O)c1ccc(C(=O)c2ccccc2)cc1,–,"inconclusive: 14.6 µM [activator, partial curve]"
Cn1cccc1/C=C1\CC(C(C)(C)C)C/C(=C\c2cccn2C)C1=O (centres undefined),–,"inconclusive: 25.9 µM [inhibitor, single point]"
Cc1ccc(C(=O)NC(=S)Nc2ccc(CN3CCOCC3)cc2)cc1,inactive: 0.803%,–
O=C1NC(c2ccccc2)=N/C1=C/c1ccco1,–,"inconclusive: 16.4 µM [activator, partial curve]"
CN(C)C(=O)c1cc(C(=O)c2ccccc2C(F)(F)F)c[nH]1,–,active: 6.51 µM
O=C(CN1CCSC1=NCc1ccccc1)c1ccccc1,inactive: 0.0107%,–
CCCCCc1ccc(-c2ccc(/C=C/C(N)=O)cc2)nc1,–,"inconclusive: 14.6 µM [activator, partial curve]"
CC(=O)c1sc(NC(=O)c2ccc(F)c(F)c2)nc1C,–,"inconclusive: 9.2 µM [activator, partial curve]"
Cc1ccc(S(=O)(=O)N2CCOCC2)cc1NC(=O)COC(=O)c1cnc(Cl)c(Cl)c1,inactive: 26.6%,–
Cc1ccc2c(c1)C(=O)C(=O)N2Cc1ccc(Br)cc1,–,"inconclusive: 13 µM [activator, partial curve]"
Cc1ccnc2nc(C(=O)OCC(=O)Nc3ccc4c(c3)OCCO4)nn12,–,"inconclusive: 14.6 µM [activator, partial curve, poor fit]"
CN(c1ccccc1)S(=O)(=O)c1cccc(NC(=O)c2nn(C)c(=O)c3ccccc23)c1,–,active: 18.3 µM
Cc1cccc2sc(N(CCN3CCOCC3)C(=O)CCS(=O)(=O)c3ccccc3)nc12,inactive: -1.22%,–
CCOC(=O)CSc1n[nH]c(NS(=O)(=O)c2ccccc2C(F)(F)F)n1,inactive: 17.3%,–
COc1cc(C2NC(=O)CS2)cc(OC)c1OC (centres undefined),inactive: -7.02%,–
COc1ccc2c(c1)C(=O)CC(O)(C(F)F)O2 (centres undefined),–,"inconclusive: 18.3 µM [activator, partial curve, poor fit]"

# Some values from the results shown:
# `CCn1c(SC(C)C(=O)Nc2nccs2)nnc1-c1ccncc1` (centres undefined) – activity change, negative = inhibition: inactive: 13%
# `Cc1ccc2c(c1)C(=O)C(=O)N2Cc1ccc(Br)cc1` – Potency: inconclusive: 13 µM [activator, partial curve]
